Results deposited as PubChem BioAssay AID1224830 (NIAID, 2016).

Purpose: 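Host factors that control LPS-induced TNF expression in human macrophages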 (primary screen)
Cells: human THP-1 monocytic leukaemia cells, TNF dual-luciferase reporter clone, PMA-differentiated to macrophage-like cells
Reagents: siRNA pool against human genes, 50 nM
Time to read-out: LPS for 4 h, given about 3 days after siRNA transfection
Challenge: bacterial LPS (TLR4 ligand), 10 ng/ml
Read-out: 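Ratio of firefly to renilla light, scaled to the plate median and expressed as a robust z-score per replicate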
Scale: TNF reporter robust z-score: higher = stronger TNF reporter response to LPS
Rule for the call: 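a well is active when its z-score exceeds 2.8 or falls below -1.5; control wells carry no call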
The deposit covers about 18,000 reagents; below is an unselected part. Over the whole deposit, about 2,900 (16%) were called active. 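Calls are made per well; low scores hint the gene aids the LPS response, high scores that it dampens it.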 Repeated entries: four replicate wells of each siRNA pool.

TNF reporter robust z-score | call | gene
-0.18 | inactive | ZNF334 (GeneID 55713)
0.13 | inactive | ZNF334 (GeneID 55713)
0.55 | inactive | ZNF334 (GeneID 55713)
-0.64 | inactive | ZNF334 (GeneID 55713)
3.26 | active | CHD8 (GeneID 57680)
3.7 | active | CHD8 (GeneID 57680)
1.83 | inactive | CHD8 (GeneID 57680)
2.55 | inactive | CHD8 (GeneID 57680)
-0.4 | inactive | C19orf12 (GeneID 83636)
0.19 | inactive | C19orf12 (GeneID 83636)
0.61 | inactive | C19orf12 (GeneID 83636)
0.8 | inactive | C19orf12 (GeneID 83636)
-0.6 | inactive | ZNF589 (GeneID 51385)
-0.27 | inactive | ZNF589 (GeneID 51385)
0.89 | inactive | ZNF589 (GeneID 51385)
-0.36 | inactive | ZNF589 (GeneID 51385)
0.51 | inactive | OR4K1 (GeneID 79544)
-0.09 | inactive | OR4K1 (GeneID 79544)
2.07 | inactive | OR4K1 (GeneID 79544)
0.1 | inactive | OR4K1 (GeneID 79544)
0.26 | inactive | LGI4 (GeneID 163175)
-0.96 | inactive | LGI4 (GeneID 163175)
-0.21 | inactive | LGI4 (GeneID 163175)
-0.52 | inactive | LGI4 (GeneID 163175)
-0.38 | inactive | CHRNB1 (GeneID 1140)
-0.33 | inactive | CHRNB1 (GeneID 1140)
-0.98 | inactive | CHRNB1 (GeneID 1140)
0.1 | inactive | CHRNB1 (GeneID 1140)
0.39 | inactive | SEPTIN3 (GeneID 55964)
0.64 | inactive | SEPTIN3 (GeneID 55964)
-0.34 | inactive | SEPTIN3 (GeneID 55964)
0.79 | inactive | SEPTIN3 (GeneID 55964)
-0.61 | inactive | NCALD (GeneID 83988)
-0.32 | inactive | NCALD (GeneID 83988)
-0.5 | inactive | NCALD (GeneID 83988)
-0.31 | inactive | NCALD (GeneID 83988)
-1.09 | inactive | GPR15LG (GeneID 387695)
-1.21 | inactive | GPR15LG (GeneID 387695)
-1.95 | active | GPR15LG (GeneID 387695)
-1.51 | active | GPR15LG (GeneID 387695)
-0.59 | inactive | MUCL1 (GeneID 118430)
-0.09 | inactive | MUCL1 (GeneID 118430)
-0.52 | inactive | MUCL1 (GeneID 118430)
-0.29 | inactive | MUCL1 (GeneID 118430)
-0.09 | inactive | BTBD1 (GeneID 53339)
-0.38 | inactive | BTBD1 (GeneID 53339)
0.3 | inactive | BTBD1 (GeneID 53339)
0.83 | inactive | BTBD1 (GeneID 53339)
0.52 | inactive | APOLD1 (GeneID 81575)
1.09 | inactive | APOLD1 (GeneID 81575)
0.13 | inactive | APOLD1 (GeneID 81575)
0.33 | inactive | APOLD1 (GeneID 81575)
-0.67 | inactive | DMRT2 (GeneID 10655)
1.29 | inactive | DMRT2 (GeneID 10655)
0.83 | inactive | DMRT2 (GeneID 10655)
0.58 | inactive | DMRT2 (GeneID 10655)
-0.68 | inactive | TNFSF8 (GeneID 944)
0.29 | inactive | TNFSF8 (GeneID 944)
-0.74 | inactive | TNFSF8 (GeneID 944)
-0.59 | inactive | TNFSF8 (GeneID 944)
1.08 | inactive | STX5 (GeneID 6811)
1.03 | inactive | STX5 (GeneID 6811)
0.15 | inactive | STX5 (GeneID 6811)
2.04 | inactive | STX5 (GeneID 6811)
-1.41 | inactive | LSR (GeneID 51599)
-0.57 | inactive | LSR (GeneID 51599)
-0.88 | inactive | LSR (GeneID 51599)
-0.79 | inactive | LSR (GeneID 51599)
-0.26 | inactive | GPRIN1 (GeneID 114787)
-0.22 | inactive | GPRIN1 (GeneID 114787)
-0.53 | inactive | GPRIN1 (GeneID 114787)
-1.33 | inactive | GPRIN1 (GeneID 114787)
-1.08 | inactive | MTO1 (GeneID 25821)
-0.98 | inactive | MTO1 (GeneID 25821)
-0.78 | inactive | MTO1 (GeneID 25821)
-1.36 | inactive | MTO1 (GeneID 25821)
2.81 | active | MEST (GeneID 4232)
1.07 | inactive | MEST (GeneID 4232)
1.22 | inactive | MEST (GeneID 4232)
1.14 | inactive | MEST (GeneID 4232)
0.45 | inactive | FAM217B (GeneID 63939)
1.17 | inactive | FAM217B (GeneID 63939)
0.89 | inactive | FAM217B (GeneID 63939)
0.66 | inactive | FAM217B (GeneID 63939)
-0.73 | inactive | DCAF7 (GeneID 10238)
-0.59 | inactive | DCAF7 (GeneID 10238)
-0.22 | inactive | DCAF7 (GeneID 10238)
-0.39 | inactive | DCAF7 (GeneID 10238)
-1.52 | active | ARHGAP36 (GeneID 158763)
-0.91 | inactive | ARHGAP36 (GeneID 158763)
-1.29 | inactive | ARHGAP36 (GeneID 158763)
-1.24 | inactive | ARHGAP36 (GeneID 158763)
0.63 | inactive | RWDD2A (GeneID 112611)
0.04 | inactive | RWDD2A (GeneID 112611)
-1.01 | inactive | RWDD2A (GeneID 112611)
-0.17 | inactive | RWDD2A (GeneID 112611)
0.17 | inactive | TRAPPC1 (GeneID 58485)
0.02 | inactive | TRAPPC1 (GeneID 58485)
0.29 | inactive | TRAPPC1 (GeneID 58485)
-0.52 | inactive | CAMK2B (GeneID 816)
0.43 | inactive | CAMK2B (GeneID 816)
0.1 | inactive | CAMK2B (GeneID 816)
-0.04 | inactive | CAMK2B (GeneID 816)
1.48 | inactive | KATNBL1 (GeneID 79768)
2 | inactive | KATNBL1 (GeneID 79768)
1.18 | inactive | KATNBL1 (GeneID 79768)
3.24 | active | KATNBL1 (GeneID 79768)
-1.11 | inactive | ATOX1 (GeneID 475)
-2.23 | active | ATOX1 (GeneID 475)
-1.01 | inactive | ATOX1 (GeneID 475)
0.08 | inactive | ATOX1 (GeneID 475)

Laid out differently: 15 of the entries above
{"gene": "MEST (GeneID 4232)", "TNF reporter robust z-score": 2.81, "call": "active"}
{"gene": "MEST (GeneID 4232)", "TNF reporter robust z-score": 1.07, "call": "inactive"}
{"gene": "MEST (GeneID 4232)", "TNF reporter robust z-score": 1.22, "call": "inactive"}
{"gene": "MEST (GeneID 4232)", "TNF reporter robust z-score": 1.14, "call": "inactive"}
{"gene": "FAM217B (GeneID 63939)", "TNF reporter robust z-score": 0.45, "call": "inactive"}
{"gene": "FAM217B (GeneID 63939)", "TNF reporter robust z-score": 1.17, "call": "inactive"}
{"gene": "FAM217B (GeneID 63939)", "TNF reporter robust z-score": 0.89, "call": "inactive"}
{"gene": "FAM217B (GeneID 63939)", "TNF reporter robust z-score": 0.66, "call": "inactive"}
{"gene": "DCAF7 (GeneID 10238)", "TNF reporter robust z-score": -0.73, "call": "inactive"}
{"gene": "DCAF7 (GeneID 10238)", "TNF reporter robust z-score": -0.59, "call": "inactive"}
{"gene": "DCAF7 (GeneID 10238)", "TNF reporter robust z-score": -0.22, "call": "inactive"}
{"gene": "DCAF7 (GeneID 10238)", "TNF reporter robust z-score": -0.39, "call": "inactive"}
{"gene": "ARHGAP36 (GeneID 158763)", "TNF reporter robust z-score": -1.52, "call": "active"}
{"gene": "ARHGAP36 (GeneID 158763)", "TNF reporter robust z-score": -0.91, "call": "inactive"}
{"gene": "ARHGAP36 (GeneID 158763)", "TNF reporter robust z-score": -1.29, "call": "inactive"}
